Data as given in patent publication US9931379B2, “Oxyntomodulin analogs and methods of making and using same” (The Research Foundation for The State University of New York, priority 2015, dated 2018).
At least one structure is not confirmed: it was looked up by name or label, or the drawing left a doubt. Starred links: 1 amine or outer side, 2 acyl side, 3 side chain; linkers in the order of their positions; H or OH if unused. Positions of bridges follow the written chain, without caps; N, C: chain ends. Non-standard residues stand in square brackets, D forms with d. Residues, ends and D or L forms follow the SMILES beside them. X2 = c1cc2nc3ccc(C[*:2])cc3nc2cc1C[*:1]

The chains behind the UniProt entries cited, without tags or fusion partners. Residues count along the entry.
UniProt P47871, 26-477: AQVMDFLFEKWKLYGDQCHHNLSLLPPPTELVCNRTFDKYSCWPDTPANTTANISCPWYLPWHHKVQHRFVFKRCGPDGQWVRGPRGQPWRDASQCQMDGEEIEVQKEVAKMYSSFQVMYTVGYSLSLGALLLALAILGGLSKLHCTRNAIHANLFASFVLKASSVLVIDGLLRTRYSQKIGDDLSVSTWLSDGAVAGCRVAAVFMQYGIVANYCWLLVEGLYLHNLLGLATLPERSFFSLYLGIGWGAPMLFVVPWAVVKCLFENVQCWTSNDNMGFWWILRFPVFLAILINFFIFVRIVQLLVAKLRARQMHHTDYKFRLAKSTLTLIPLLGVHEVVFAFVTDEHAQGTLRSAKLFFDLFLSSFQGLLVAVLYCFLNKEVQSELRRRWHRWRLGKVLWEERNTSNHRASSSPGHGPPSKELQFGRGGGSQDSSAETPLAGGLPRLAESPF
UniProt P43220, 24-463: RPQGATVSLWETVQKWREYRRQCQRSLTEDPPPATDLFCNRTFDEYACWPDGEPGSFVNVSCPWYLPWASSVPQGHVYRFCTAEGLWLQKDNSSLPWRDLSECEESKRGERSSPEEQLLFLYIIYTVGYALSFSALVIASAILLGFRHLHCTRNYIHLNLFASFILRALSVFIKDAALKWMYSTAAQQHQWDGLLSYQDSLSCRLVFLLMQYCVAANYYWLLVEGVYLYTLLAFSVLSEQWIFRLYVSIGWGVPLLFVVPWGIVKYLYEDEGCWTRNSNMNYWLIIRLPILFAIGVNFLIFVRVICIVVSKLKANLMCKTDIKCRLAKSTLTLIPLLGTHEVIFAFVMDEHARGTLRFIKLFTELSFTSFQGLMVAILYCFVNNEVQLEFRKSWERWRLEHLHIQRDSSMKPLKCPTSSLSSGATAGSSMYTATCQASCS

Columns and labels:
GCGR = molecular target: T1, GCGR (Homo sapiens, UniProt P47871); test: CRE-driven luciferase reporter assay, HEK293 cells overexpressing GCGR; assay type: cell-based; conditions: read-out: Agonist activity (nM) GCGR; Table 2; mean and standard deviation, assay performed three times
T1 construct: expressed in transfected cells
Protocol: (§1) The surviving cells (referred to as CRE-HEK293) were expanded and then transfected with a G418 selective mammalian expression plasmid encoding human GCGR or GLP-1R, followed by geneticin selection (Life technologies, Carlsbad, Calif.). Single-colony stable cell lines expressing both CRE-luciferase and GCGR/GLP-1R were then established for in vitro activity assays.
(§2) HEK293-GCGR-CRE and HEK293-GLP-1R-CRE cells were seeded in a white 384-well plate at a density of 5,000 cells per well and cultured for 24 hours in DMEM with 10% FBS at 37° C. with 5% CO2. Cells were treated with different peptides in a dose dependent manner. After 24 hours, 10 μL of Bright-Glo reagent (Promega, Madison, Wis.) was added to each well and luminescence was determined using an Envision multilabel plate reader (PerkinElmer, Waltham, Mass.). The EC50 of each peptide was calculated using GraphPad Prism 6 software (GraphPad, San Diego, Calif.).

GLP-1R = molecular target: T2, GLP-1R (Homo sapiens, UniProt P43220); test: CRE-driven luciferase reporter assay, HEK293 cells overexpressing GLP-1R; assay type: cell-based; conditions: read-out: Agonist activity (nM) GLP-1R; Table 2; mean and standard deviation, assay performed three times
T2 construct: expressed in transfected cells
Protocol: as §1, §2

`CC[C@H](C)[C@H](NC(=O)[C@H](CC(N)=O)NC(=O)[C@H](CC(N)=O)NC(=O)[C@H](CCCNC(=N)N)NC(=O)[C@H](CC(N)=O)NC(=O)[C@H](CCCNC(=N)N)NC(=O)[C@H](CCCCN)NC(=O)[C@@H](NC(=O)[C@H](CC(N)=O)NC(=O)[C@H](CCSC)NC(=O)[C@H](CC(C)C)NC(=O)[C@H](Cc1c[nH]c2ccccc12)NC(=O)[C@@H]1CSCc2ccc3nc4ccc(cc4nc3c2)CSC[C@H](NC(=O)[C@H](CCC(=O)O)NC(=O)[C@H](CC(=O)O)NC(=O)[C@H](CC(C)C)NC(=O)[C@H](Cc2ccc(O)cc2)NC(=O)[C@H](CCCCN)NC(=O)[C@H](CO)NC(=O)[C@H](Cc2ccc(O)cc2)NC(=O)[C@H](CC(=O)O)NC(=O)[C@H](CO)NC(=O)[C@@H](NC(=O)[C@H](Cc2ccccc2)NC(=O)[C@@H](NC(=O)CNC(=O)[C@H](CCC(N)=O)NC(=O)[C@@H](CO)NC(=O)[C@@H](N)Cc2c[nH]cn2)[C@@H](C)O)[C@@H](C)O)C(=O)N[C@@H](C)C(=O)N[C@@H](C)C(=O)N[C@@H](CCCCN)C(=O)N[C@@H](CCC(=O)O)C(=O)N[C@@H](Cc2ccccc2)C(=O)N[C@@H]([C@@H](C)CC)C(=O)N1)[C@@H](C)O)C(=O)N[C@@H](C)C(N)=O` [compound 13] (H-H[dS]QGTFTSDYSKYLDECAAKEFICWLMNTKRNRNNIA-NH2; linker 17-24 via X2) gave an EC50 (GCGR) of 0.24 ± 0.12 nM and an EC50 (GLP-1R) of 0.15 ± 0.02 nM.
